Measured values published in article PMC11986451.
Results are given in words; binding and its absence hold for the method and conditions named. In cells and extracts the contact can be indirect. Some binding calls cover weakened binding; strength is not graded here.

The chains behind the UniProt entries cited, without tags or fusion partners.
UniProt O43293: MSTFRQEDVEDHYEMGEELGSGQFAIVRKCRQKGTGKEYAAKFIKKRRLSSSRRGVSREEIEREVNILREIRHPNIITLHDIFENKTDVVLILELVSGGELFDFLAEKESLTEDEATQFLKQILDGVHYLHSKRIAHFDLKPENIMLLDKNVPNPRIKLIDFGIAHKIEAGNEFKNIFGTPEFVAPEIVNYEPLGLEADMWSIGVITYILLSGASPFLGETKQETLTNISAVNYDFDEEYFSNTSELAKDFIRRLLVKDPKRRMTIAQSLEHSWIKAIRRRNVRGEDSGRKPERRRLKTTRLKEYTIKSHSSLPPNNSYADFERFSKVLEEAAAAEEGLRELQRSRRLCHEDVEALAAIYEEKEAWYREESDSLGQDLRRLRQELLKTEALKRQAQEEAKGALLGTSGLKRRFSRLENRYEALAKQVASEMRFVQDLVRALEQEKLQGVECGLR
UniProt P42229: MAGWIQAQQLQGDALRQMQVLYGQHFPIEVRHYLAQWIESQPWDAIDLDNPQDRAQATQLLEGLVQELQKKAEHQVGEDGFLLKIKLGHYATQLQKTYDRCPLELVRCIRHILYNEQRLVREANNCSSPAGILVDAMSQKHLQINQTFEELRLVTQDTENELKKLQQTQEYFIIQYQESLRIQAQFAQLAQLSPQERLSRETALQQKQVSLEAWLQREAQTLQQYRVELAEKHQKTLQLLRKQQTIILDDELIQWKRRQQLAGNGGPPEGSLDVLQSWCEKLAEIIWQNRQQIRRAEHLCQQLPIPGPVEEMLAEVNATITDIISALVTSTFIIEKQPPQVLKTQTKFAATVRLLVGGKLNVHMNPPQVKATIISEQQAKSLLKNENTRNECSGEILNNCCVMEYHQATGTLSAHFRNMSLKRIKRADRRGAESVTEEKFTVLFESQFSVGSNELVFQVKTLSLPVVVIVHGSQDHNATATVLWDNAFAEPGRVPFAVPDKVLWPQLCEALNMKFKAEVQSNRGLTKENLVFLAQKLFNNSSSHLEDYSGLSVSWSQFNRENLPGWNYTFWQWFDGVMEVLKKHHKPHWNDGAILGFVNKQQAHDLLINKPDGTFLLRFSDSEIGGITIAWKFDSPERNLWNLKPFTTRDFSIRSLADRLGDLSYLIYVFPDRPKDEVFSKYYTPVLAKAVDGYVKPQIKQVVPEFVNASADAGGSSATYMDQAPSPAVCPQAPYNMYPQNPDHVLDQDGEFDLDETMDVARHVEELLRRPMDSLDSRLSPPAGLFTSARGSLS

Biological target: Zipper-interacting protein kinase (ZIPK) (human (endogenous in HUVEC)) (UniProt O43293)
Assay: co-IP; endogenous immunoprecipitation from HUVEC whole-cell lysates with anti-ZIPK or anti-STAT5A antibody, anti-IgG as negative control, protein A/G Dynabeads, 4°C overnight; western blot detection

In the case of “signal transducer and activator of transcription 5A (STAT5A) (from UniProt P42229 1-794)”, the binding is reported as “binds”.
